PubChem BioAssay AID652272 | Drosophila RNAi Screening Center – 2013

- Aim: 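Genes whose knock-down decreases or increases Hedgehog reporter output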 (primary screen)
- System: Drosophila clone 8 (Cl8) cells
- Reagents: long dsRNA against Drosophila genes
- Detection: 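Firefly light from a Hedgehog-responsive ptc promoter reporter and Renilla reference light, both read on a plate reader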
- Direction: firefly Hh reporter signal: higher = more ptc reporter light; Renilla reference signal: higher = more Renilla control light
- Hit rule: 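Called a hit if the two-replicate mean z-score lies below -2 or above +3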
- Calls: active = hit: reporter lowered or raised; inactive = not a hit
The deposit covers about 21,000 reagents; this is an unselected part of those that have a named target and a result. In the full data, 503 (2.4%) were called active. 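Raw plate light values, not normalised; calls rest on replicate z-scores that were not deposited; hits include reporter decreases as well as increases.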 A number with no mark means an inactive call. Names joined by + are all predicted targets of the reagent. The record does not give: the amount of reagent, the time to read-out.

no.	gene	DRSC id	firefly Hh reporter signal, replicate 1	firefly Hh reporter signal, replicate 2	firefly Hh reporter signal, replicate 3	Renilla reference signal, replicate 1	Renilla reference signal, replicate 2
1	Cht6 (Chitinase 6)	DRSC18001	71490	1.37e5		1848	5347
2	Cht6 (Chitinase 6)	DRSC18002	41336	58864		788	2677
3	Cht6 (Chitinase 6)	DRSC18253	89845	2.94e5		2571	12018
4	CG3842	DRSC18326	60244	1.67e5		1597	6282
5	Elk (Eag-like K[+] channel)	DRSC07608	1.18e5	74146		4792	3285
6	FucTA (alpha1,3-fucosyltransferase A)	DRSC10733	60091			1019	1865
7	CG11145	DRSC06049	1.13e5	87937		2129	7408
8	CG12917	DRSC06231	87728	52954		2633	4754
9	Hers (Histone gene-specific Epigenetic Repressor in late S phase)	DRSC19429	1.19e5	1.16e5		2888	2857
10	Hers (Histone gene-specific Epigenetic Repressor in late S phase)	DRSC19676	1.20e5	3.02e5		2787	12524
11	Tps1 (Trehalose-6-phosphate synthase 1)	DRSC00269	95864	70745		4688	2941
12	Smg5 (Smg5 nonsense mediated mRNA decay factor)	DRSC03124	1.26e5 (active)	71416		3120	1636
13	AOX4 (Aldehyde oxidase 4)	DRSC15337	77112	82192		2016	1908
14	CG15203	DRSC19650	1.00e5	2.69e5		3057	10280
15	Obp58c (Odorant-binding protein 58c)	DRSC04166	92082	68872		2320	5296
16	CG4297	DRSC00651	1.10e5	85477		2150	2106
17	Alp12 (Alkaline phosphatase 12)	DRSC02515	1.67e5	64578		4069	6187
18	Sting	DRSC06615	1.42e5	59778		3110	3958
19	CG7963	DRSC16355	62180	96549		1812	2586
20	BBS5 (Bardet-Biedl syndrome 5)	DRSC12168	72624	1.32e5		2364	3498
21	ND1 (retired record)	DRSC21273	1.80e5	2.83e5		5952	12706
22	Glyp (Glycogen phosphorylase)	DRSC00752	4.97e5	1.16e5		5813	5813
23	nAChRalpha6 (nicotinic Acetylcholine Receptor alpha6)	DRSC01096	5.48e5	1.74e5		27712	8154
24	nAChRalpha6 (nicotinic Acetylcholine Receptor alpha6)	DRSC01098	3.03e5	92096		14866	4513
25	nAChRalpha6 (nicotinic Acetylcholine Receptor alpha6)	DRSC02738	1.28e5	83849		4633	3090
26	CG14696	DRSC14919	74789	1.04e5		2130	2705
27	CG15459	DRSC20530	96273	4.32e5	2.85e5	2642	3026
28	del (deadlock)	DRSC03170	95741	1.33e5		4457	4875
29	Nuak (Nuak family kinase)	DRSC14414	57842	87991		1485	2349
30	Nuak (Nuak family kinase)	DRSC14415	1.19e5	90660		5111	3698
31	Nuak (Nuak family kinase)	DRSC14416	92461	1.36e5		2281	4221
32	SP2353	DRSC07545	55096	25800		1403	1824
33	NimC2 (Nimrod C2)	DRSC01881	1.41e5	51499		3467	4866
34	Tmtc4 (Transmembrane O-mannosyltransferase targeting cadherins 4)	DRSC15702	68438	74489		1398	1574
35	Eaat1 (Excitatory amino acid transporter 1)	DRSC03321	64549	49155		1931	4132
36	Tdh (L-threonine dehydrogenase)	DRSC11788	1.26e5	83500		4345	2961
37	Seipin	DRSC18654	50749	2.77e5		1298	10187
38	obst-A (obstructor-A)	DRSC20543	1.23e5	1.37e5		2992	3360
39	CG1724	DRSC20548	64258	1.82e5		2050	8088
40	Ge-1	DRSC02938	47499	74985		2235	3387
41	Ctu2 (Cytosolic thiouridylase subunit 2)	DRSC02024	1.33e5	1.00e5		5574	4504
42	ebo (ellipsoid body open)	DRSC18787	83207	63872		1788	2081
43	Slu7	DRSC14729	93367	49643		4746	2093
44	TP53INP (Tumor protein p53 inducible nuclear protein)	DRSC08178	2.43e5	5.37e5	1.56e5	9129	34192
45	His4:CG33883 + His4:CG33889 + His4:CG33899 + 20 more	DRSC21268	33301	69181		729	3206
46	scro (scarecrow)	DRSC17099	4.13e5	1.70e5		19448	2884
47	scro (scarecrow)	DRSC17102	1.01e5	2.34e5		1789	9424
48	CG17192	DRSC15186	1.16e5	1.33e5		4067	3908
49	CG7194	DRSC10784	36617	55437		3106	4032
50	CG11664	DRSC18650	51143	2.42e5		1385	9675
51	Girdin	DRSC08292	70468	29469		2436	1035
52	CG15186	DRSC12566	55776	1.01e5		2368	3097
53	PTP-ER (Protein tyrosine phosphatase-ERK/Enhancer of Ras1)	DRSC04636	1.21e5	40672		4289	1697
54	CG15525	DRSC15062	1.07e5	93024		4076	2901
55	HIP + HIP-R	DRSC18245	2.05e5	1.15e5		4491	3769
56	laza (lazaro)	DRSC11661	1.46e5	1.23e5		6160	4716
57	CG17026	DRSC10237	2.02e5			1945	5768
